The list is a part of this screen's results and no random one: it is rich in T/C values a quarter to a half above the control, in often repeated tests (any T/C) and in doses without a T/C. Other doses and runs of a compound stand elsewhere. T/C: endpoint of the treated group in % of that of the vehicle group. Some entries give survivors of the animals treated and no T/C: the source holds a T/C of zero for them, seemingly a mark for toxic or unscored doses. Some survivor counts are full or nearly so, which does not show that the dose was tolerated: the source hardly ever lists a survival T/C far under the control, and the zero likely stands for such cases as well. Counts of survivors are from the toxicity check (mostly the fifth day) where no day follows; animals may have died later. Schedules are NCI's codes, read here as Q, the interval in days (D) or hours (H), X, the number of doses. Some entries were tested several times; the results are listed from low to high. Some schedule codes hold Z or #, which are not explained here. Where survival is the endpoint, the PubChem record calls one and a half times the control and up active, and a quarter to a half above the control has no call in these data; cut-offs in other NCI protocols can differ. Some T/C values carry the count of animals alive at the toxicity check (mostly the fifth day); where none is given, no animal had died by that day. Counts like (3×) stand for listed records that agree.
Tested on: L1210 leukemia ip in BDF1 mice, survival T/C
Assay: NCI In Vivo Anticancer Drug Screen. Data for tumor model L1210 Leukemia (intraperitoneal) in B6D2F1 (BDF1) mice
Conditions: T/C endpoint: mean survival time, higher T/C = longer survival

## CC[C@](O)(C(=O)O)c1cc2n(c(=O)c1CO)Cc1cc3ccccc3nc1-2
dose: 0.5 mg/kg/injection, schedule: Q01DX010 (ip), vehicle: saline
  T/C: 138 % of control
dose: 0.5 mg/kg/injection, schedule: Q01DX010 (oral), vehicle: saline
  T/C: 125 % of control
dose: 0.5 mg/kg/injection, schedule: Q01DX Z (ip), vehicle: saline
  T/C: 127 % of control
dose: 0.5 mg/kg/injection, schedule: Q#A X Z (ip), vehicle: saline
  T/C: 130 % of control
dose: 1.0 mg/kg/injection, schedule: Q01DX010 (ip), vehicle: saline
  T/C: 149 % of control
dose: 1.0 mg/kg/injection, schedule: Q01DX010 (iv), vehicle: saline
  T/C: 129 % of control
dose: 1.0 mg/kg/injection, schedule: Q01DX Z (ip), vehicle: saline
  T/C: 125 and 140 % of control
dose: 1.3 mg/kg/injection, schedule: Q01DX009 (ip), vehicle: saline
  T/C: 115, 120, 125, 134 % of control
dose: 1.5 mg/kg/injection, schedule: Q#A X Z (ip), vehicle: saline
  T/C: 138 % of control
dose: 2.0 mg/kg/injection, schedule: Q01DX009 (ip), vehicle: saline, evaluated on day 30
  T/C: 133 % of control
dose: 2.0 mg/kg/injection, schedule: Q01DX009 (ip), vehicle: saline, evaluated on day 40
  T/C: 137 % of control
dose: 2.0 mg/kg/injection, schedule: Q01DX009 (oral), vehicle: water
  T/C: 125 % of control
dose: 2.0 mg/kg/injection, schedule: Q01DX010 (iv), vehicle: saline
  T/C: 148 % of control
dose: 2.0 mg/kg/injection, schedule: Q01DX015 (oral), vehicle: saline
  T/C: 146 % of control
dose: 2.0 mg/kg/injection, schedule: Q01DX Z (im), vehicle: saline
  T/C: 143 % of control
dose: 2.0 mg/kg/injection, schedule: Q01DX Z (ip), vehicle: saline
  T/C: 107, 133, 163, 178 % of control (2×)
dose: 2.0 mg/kg/injection, schedule: Q01DX Z (oral), vehicle: saline
  T/C: 125 (2×) and 147 % of control
dose: 2.5 mg/kg/injection, schedule: Q01DX009 (ip), vehicle: saline
  T/C: 131 (2×), 138, 141 % of control
dose: 3.0 mg/kg/injection, schedule: Q01DX006 (iv), vehicle: saline
  T/C: 132 % of control
dose: 3.0 mg/kg/injection, schedule: Q01DX015 (oral), vehicle: saline
  T/C: 144 % of control
dose: 3.0 mg/kg/injection, schedule: Q01DX Z (im), vehicle: saline
  T/C: 138 % of control
dose: 3.0 mg/kg/injection, schedule: Q01DX Z (oral), vehicle: saline
  T/C: 135 % of control
dose: 3.35 mg/kg/injection, schedule: Q#A X Z (ip), vehicle: saline
  survivor count: 6 of 6
dose: 4.0 mg/kg/injection, schedule: Q01DX009 (ip), vehicle: saline
  T/C: 133 % of control
dose: 4.0 mg/kg/injection, schedule: Q01DX010 (iv), vehicle: saline
  T/C: 148 % of control
dose: 4.5 mg/kg/injection, schedule: Q01DX Z (sc), vehicle: saline
  T/C: 135 % of control
dose: 5.0 mg/kg/injection, schedule: Q01DX009 (ip), vehicle: saline
  T/C: 111, 113, 153, 161 % of control
dose: 5.0 mg/kg/injection, schedule: Q## X003 (ip), vehicle: saline
  T/C: 132 % of control
dose: 5.0 mg/kg/injection, schedule: Q## X003 (oral), vehicle: saline
  T/C: 127 % of control
dose: 6.0 mg/kg/injection, schedule: Q01DX Z (oral), vehicle: saline
  survivor count: 5 of 6
dose: 6.0 mg/kg/injection, schedule: Q03DX Z (ip), vehicle: saline
  T/C: 129 and 147 % of control
dose: 6.5 mg/kg/injection, schedule: Q01DX006 (iv), vehicle: saline
  T/C: 126 % of control
dose: 6.5 mg/kg/injection, schedule: Q01DX Z (im), vehicle: saline
  survivor count: 5 of 6
dose: 6.5 mg/kg/injection, schedule: Q01DX Z (sc), vehicle: saline
  survivor count: 6 of 6
dose: 8.0 mg/kg/injection, schedule: Q01DX009 (oral), vehicle: water
  survivor count: 10 of 10
dose: 8.0 mg/kg/injection, schedule: Q01DX010 (ip), vehicle: saline
  survivor count: 5 of 6
dose: 8.0 mg/kg/injection, schedule: Q01DX010 (iv), vehicle: saline
  survivor count: 6 of 6
dose: 8.0 mg/kg/injection, schedule: Q01DX010 (oral), vehicle: saline
  survivor count: 6 of 6
dose: 8.0 mg/kg/injection, schedule: Q01DX Z (oral), vehicle: saline
  survivor count: 6 of 6
dose: 9.5 mg/kg/injection, schedule: Q01DX006 (iv), vehicle: saline
  survivor count: 5 of 6
dose: 9.5 mg/kg/injection, schedule: Q01DX Z (sc), vehicle: saline
  survivor count: 6 of 6
dose: 10.0 mg/kg/injection, schedule: Q01DX001 (oral), vehicle: saline
  T/C: 139 % of control
dose: 10.0 mg/kg/injection, schedule: Q01DX001 (oral), vehicle: water
  T/C: 131 % of control [9 of 10 alive]
dose: 10.0 mg/kg/injection, schedule: Q01DX009 (ip), vehicle: saline
  survivor count: 3 of 3 and 6 of 6
dose: 10.0 mg/kg/injection, schedule: Q04DX002 (ip), vehicle: saline
  T/C: 117, 119, 124, 138 % of control
dose: 10.0 mg/kg/injection, schedule: Q04DX003 (ip), vehicle: saline
  T/C: 144 % of control
dose: 10.0 mg/kg/injection, schedule: Q04DX003 (ip), vehicle: water
  T/C: 131 and 134 % of control
dose: 10.0 mg/kg/injection, schedule: Q08DX002 (ip), vehicle: water
  T/C: 140 % of control
dose: 10.0 mg/kg/injection, schedule: Q## X002 (ip), vehicle: saline
  T/C: 129 % of control
dose: 10.0 mg/kg/injection, schedule: Q## X003 (ip), vehicle: saline
  T/C: 133 % of control
dose: 10.0 mg/kg/injection, schedule: Q## X008 (ip), vehicle: saline
  T/C: 137 % of control
dose: 14.5 mg/kg/injection, schedule: Q01DX006 (iv), vehicle: saline
  survivor count: 6 of 6
dose: 14.5 mg/kg/injection, schedule: Q01DX Z (sc), vehicle: saline
  survivor count: 4 of 6
dose: 16.0 mg/kg/injection, schedule: Q01DX001 (ip), vehicle: saline, evaluated on day 30
  T/C: 134 % of control
dose: 16.0 mg/kg/injection, schedule: Q01DX001 (ip), vehicle: saline, run until all animals had died
  T/C: 111, 126, 131, 133 % of control
dose: 16.0 mg/kg/injection, schedule: Q01DX009 (ip), vehicle: saline
  survivor count: 9 of 10
dose: 16.0 mg/kg/injection, schedule: Q01DX010 (ip), vehicle: saline
  survivor count: 1 of 6
dose: 16.0 mg/kg/injection, schedule: Q01DX010 (iv), vehicle: saline
  survivor count: 3 of 6
dose: 16.0 mg/kg/injection, schedule: Q01DX Z (ip), vehicle: saline
  survivor count: 6 of 6
dose: 16.0 mg/kg/injection, schedule: Q01DX Z (oral), vehicle: saline
  survivor count: 6 of 6
dose: 16.0 mg/kg/injection, schedule: Q07DX Z (ip), vehicle: saline
  T/C: 137 % of control
dose: 19.0 mg/kg/injection, schedule: Q01DX001 (ip), vehicle: saline, evaluated on day 5
  T/C: 111 and 131 % of control
dose: 19.0 mg/kg/injection, schedule: Q01DX001 (ip), vehicle: saline, evaluated on day 45
  T/C: 111 % of control
dose: 19.0 mg/kg/injection, schedule: Q01DX001 (ip), vehicle: saline, evaluated on day 60
  T/C: 131 % of control
dose: 20.0 mg/kg/injection, schedule: Q01DX001 (ip), vehicle: saline
  T/C: 146 % of control
dose: 20.0 mg/kg/injection, schedule: Q01DX001 (oral), vehicle: water
  T/C: 130 and 132 % of control [9 of 10 alive]
dose: 20.0 mg/kg/injection, schedule: Q04DX002 (ip), vehicle: saline
  T/C: 128 (2×), 147, 149 % of control
dose: 20.0 mg/kg/injection, schedule: Q## X003 (oral), vehicle: saline
  T/C: 145 % of control
dose: 20.0 mg/kg/injection, schedule: Q## X008 (ip), vehicle: saline
  T/C: 128 % of control
dose: 20.0 mg/kg/injection, schedule: Q## X008 (oral), vehicle: water
  T/C: 140 % of control [9 of 10 alive]
dose: 20.0 mg/kg/injection, schedule: Q## X024 (ip), vehicle: saline
  T/C: 128 % of control
dose: 22.0 mg/kg/injection, schedule: Q01DX006 (iv), vehicle: saline
  survivor count: 3 of 6
dose: 22.0 mg/kg/injection, schedule: Q01DX Z (sc), vehicle: saline
  survivor count: 1 of 6
dose: 24.0 mg/kg/injection, schedule: Q01DX001 (ip), vehicle: saline, evaluated on day 30
  T/C: 145 % of control
dose: 24.0 mg/kg/injection, schedule: Q01DX001 (ip), vehicle: saline, run until all animals had died
  T/C: 129 % of control
dose: 24.0 mg/kg/injection, schedule: Q07DX Z (ip), vehicle: saline
  T/C: 149 % of control
dose: 25.0 mg/kg/injection, schedule: Q01DX001 (ip), vehicle: saline
  T/C: 144 % of control
dose: 25.0 mg/kg/injection, schedule: Q04DX002 (ip), vehicle: saline
  T/C: 147 % of control
dose: 25.0 mg/kg/injection, schedule: Q04DX003 (ip), vehicle: saline
  T/C: 146 % of control
dose: 32.0 mg/kg/injection, schedule: Q01DX009 (ip), vehicle: saline
  survivor count: 9 of 10
dose: 32.0 mg/kg/injection, schedule: Q01DX010 (iv), vehicle: saline
  survivor count: 2 of 6
dose: 35.0 mg/kg/injection, schedule: Q01DX001 (ip), vehicle: saline
  T/C: 142 % of control
dose: 36.0 mg/kg/injection, schedule: Q01DX001 (ip), vehicle: saline, evaluated on day 30
  T/C: 130 % of control
dose: 36.0 mg/kg/injection, schedule: Q01DX001 (ip), vehicle: saline, run until all animals had died
  T/C: 134 % of control
dose: 38.0 mg/kg/injection, schedule: Q01DX001 (ip), vehicle: saline, evaluated on day 5
  T/C: 120, 144, 187 % of control
dose: 38.0 mg/kg/injection, schedule: Q01DX001 (ip), vehicle: saline, evaluated on day 45
  T/C: 120 and 144 % of control
dose: 38.0 mg/kg/injection, schedule: Q01DX001 (ip), vehicle: saline, evaluated on day 60
  T/C: 187 % of control
dose: 40.0 mg/kg/injection, schedule: Q01DX001 (ip), vehicle: saline, evaluated on day 30
  T/C: 133, 144, 146 [9 of 10 alive], 156, 157 % of control
dose: 40.0 mg/kg/injection, schedule: Q01DX001 (ip), vehicle: saline, evaluated on day 40
  T/C: 132 % of control
dose: 40.0 mg/kg/injection, schedule: Q01DX001 (oral), vehicle: saline
  survivor count: 3 of 10
dose: 40.0 mg/kg/injection, schedule: Q01DX001 (oral), vehicle: water
  T/C: 140 % of control [9 of 10 alive]
dose: 40.0 mg/kg/injection, schedule: Q04DX002 (ip), vehicle: saline
  T/C: 143, 163, 164, 179 % of control
